The mice bore no tumour; each value counts animals alive of those treated. Survivors were counted at the toxicity check, usually on the fifth day, unless a day is given; later deaths do not show. Schedules are NCI's codes, taken here to give the interval after Q, in days (D) or hours (H), and the number of doses after X.
System: CD2F1 mice, nontumored, toxicity/survival
Experiment: NCI In Vivo Anticancer Drug Screen. Data for tumor model Nontumored Animals (Toxicity Test) in CD2F1 (CDF1) mice

Cc1[nH]c(=O)[nH]c(=O)c1N(CCF)CCCl
survivor count (dose: 32.0 mg/kg/injection, schedule: Q03HX008 (oral), vehicle: acid diluted with saline): 0 of 8
survivor count (dose: 32.0 mg/kg/injection, schedule: Q03HX008 (oral), vehicle: other): 0 of 8
survivor count (dose: 32.0 mg/kg/injection, schedule: Q03HX016 (oral), vehicle: acid diluted with saline): 3 of 8
survivor count (dose: 32.0 mg/kg/injection, schedule: Q03HX016 (oral), vehicle: other): 0 of 8
survivor count (dose: 32.0 mg/kg/injection, schedule: Q03HX024 (oral), vehicle: acid diluted with saline): 0 of 8
survivor count (dose: 32.0 mg/kg/injection, schedule: Q03HX024 (oral), vehicle: other): 0 of 8
survivor count (dose: 32.0 mg/kg/injection, schedule: Q04DX003 (ip), vehicle: acid diluted with saline): 8 of 8
survivor count (dose: 32.0 mg/kg/injection, schedule: Q04DX003 (oral), vehicle: acid diluted with saline): 8 of 8
survivor count (dose: 32.0 mg/kg/injection, schedule: Q04DX003 (oral), vehicle: other): 8 of 8
survivor count (dose: 32.0 mg/kg/injection, schedule: Q08DX002 (ip), vehicle: acid diluted with saline): 8 of 8
survivor count (dose: 32.0 mg/kg/injection, schedule: Q08DX002 (oral), vehicle: other): 8 of 8
survivor count (dose: 64.0 mg/kg/injection, schedule: Q01DX001 (ip), vehicle: acid diluted with saline): 8 of 8
survivor count (dose: 64.0 mg/kg/injection, schedule: Q01DX001 (oral), vehicle: acid diluted with saline): 8 of 8
survivor count (dose: 64.0 mg/kg/injection, schedule: Q01DX001 (oral), vehicle: other): 1 of 8
survivor count (dose: 64.0 mg/kg/injection, schedule: Q01DX001 (sc), vehicle: acid diluted with saline): 8 of 8
survivor count (dose: 64.0 mg/kg/injection, schedule: Q01DX009 (ip), vehicle: acid diluted with saline): 1 of 8
survivor count (dose: 64.0 mg/kg/injection, schedule: Q01DX009 (ip), vehicle: saline with Tween-80): 0 of 8
survivor count (dose: 64.0 mg/kg/injection, schedule: Q01DX009 (oral), vehicle: acid diluted with saline): 8 of 8
survivor count (dose: 64.0 mg/kg/injection, schedule: Q01DX009 (oral), vehicle: other): 0 of 8
survivor count (dose: 64.0 mg/kg/injection, schedule: Q03HX008 (oral), vehicle: acid diluted with saline): 0 of 8
survivor count (dose: 64.0 mg/kg/injection, schedule: Q03HX008 (oral), vehicle: other): 0 of 8
survivor count (dose: 64.0 mg/kg/injection, schedule: Q03HX016 (oral), vehicle: acid diluted with saline): 0 of 8
survivor count (dose: 64.0 mg/kg/injection, schedule: Q03HX016 (oral), vehicle: other): 0 of 8
survivor count (dose: 64.0 mg/kg/injection, schedule: Q03HX024 (oral), vehicle: other): 0 of 8
survivor count (dose: 64.0 mg/kg/injection, schedule: Q04DX003 (ip), vehicle: acid diluted with saline): 8 of 8
survivor count (dose: 64.0 mg/kg/injection, schedule: Q04DX003 (oral), vehicle: acid diluted with saline): 8 of 8
survivor count (dose: 64.0 mg/kg/injection, schedule: Q04DX003 (oral), vehicle: other): 7 of 8
survivor count (dose: 64.0 mg/kg/injection, schedule: Q08DX002 (ip), vehicle: acid diluted with saline): 8 of 8
survivor count (dose: 64.0 mg/kg/injection, schedule: Q08DX002 (oral), vehicle: acid diluted with saline): 8 of 8
survivor count (dose: 64.0 mg/kg/injection, schedule: Q08DX002 (oral), vehicle: other): 6 of 8
survivor count (dose: 128.0 mg/kg/injection, schedule: Q01DX001 (ip), vehicle: acid diluted with saline): 6 of 8
survivor count (dose: 128.0 mg/kg/injection, schedule: Q01DX001 (oral), vehicle: acid diluted with saline): 8 of 8
survivor count (dose: 128.0 mg/kg/injection, schedule: Q01DX001 (oral), vehicle: other): 1 of 8
survivor count (dose: 128.0 mg/kg/injection, schedule: Q01DX001 (sc), vehicle: acid diluted with saline): 8 of 8
survivor count (dose: 128.0 mg/kg/injection, schedule: Q01DX009 (ip), vehicle: acid diluted with saline): 0 of 8
survivor count (dose: 128.0 mg/kg/injection, schedule: Q01DX009 (ip), vehicle: saline with Tween-80): 0 of 8
survivor count (dose: 128.0 mg/kg/injection, schedule: Q01DX009 (oral), vehicle: acid diluted with saline): 8 of 8
survivor count (dose: 128.0 mg/kg/injection, schedule: Q01DX009 (oral), vehicle: other): 1 of 8
survivor count (dose: 128.0 mg/kg/injection, schedule: Q03HX008 (oral), vehicle: acid diluted with saline): 0 of 8
survivor count (dose: 128.0 mg/kg/injection, schedule: Q03HX008 (oral), vehicle: other): 0 of 8
survivor count (dose: 128.0 mg/kg/injection, schedule: Q03HX016 (oral), vehicle: acid diluted with saline): 0 of 8
survivor count (dose: 128.0 mg/kg/injection, schedule: Q03HX016 (oral), vehicle: other): 0 of 8
survivor count (dose: 128.0 mg/kg/injection, schedule: Q04DX003 (oral), vehicle: acid diluted with saline): 8 of 8
survivor count (dose: 128.0 mg/kg/injection, schedule: Q04DX003 (oral), vehicle: other): 0 of 8
survivor count (dose: 128.0 mg/kg/injection, schedule: Q08DX002 (ip), vehicle: acid diluted with saline): 8 of 8
survivor count (dose: 128.0 mg/kg/injection, schedule: Q08DX002 (oral), vehicle: acid diluted with saline): 8 of 8
survivor count (dose: 128.0 mg/kg/injection, schedule: Q08DX002 (oral), vehicle: other): 0 of 8
survivor count (dose: 256.0 mg/kg/injection, schedule: Q01DX001 (ip), vehicle: acid diluted with saline): 0 of 8
survivor count (dose: 256.0 mg/kg/injection, schedule: Q01DX001 (oral), vehicle: acid diluted with saline): 8 of 8
survivor count (dose: 256.0 mg/kg/injection, schedule: Q01DX001 (oral), vehicle: other): 0 of 8
survivor count (dose: 256.0 mg/kg/injection, schedule: Q01DX001 (sc), vehicle: acid diluted with saline): 8 of 8
survivor count (dose: 256.0 mg/kg/injection, schedule: Q01DX009 (oral), vehicle: other): 0 of 8
survivor count (dose: 256.0 mg/kg/injection, schedule: Q04DX003 (oral), vehicle: acid diluted with saline): 8 of 8
survivor count (dose: 256.0 mg/kg/injection, schedule: Q04DX003 (oral), vehicle: other): 0 of 8
survivor count (dose: 256.0 mg/kg/injection, schedule: Q08DX002 (oral), vehicle: acid diluted with saline): 8 of 8
survivor count (dose: 256.0 mg/kg/injection, schedule: Q08DX002 (oral), vehicle: other): 0 of 8
survivor count (dose: 512.0 mg/kg/injection, schedule: Q01DX001 (oral), vehicle: acid diluted with saline): 8 of 8
survivor count (dose: 512.0 mg/kg/injection, schedule: Q01DX001 (oral), vehicle: other): 0 of 8
survivor count (dose: 512.0 mg/kg/injection, schedule: Q04DX003 (oral), vehicle: other): 0 of 8
survivor count (dose: 512.0 mg/kg/injection, schedule: Q08DX002 (oral), vehicle: acid diluted with saline): 3 of 8
survivor count (dose: 512.0 mg/kg/injection, schedule: Q08DX002 (oral), vehicle: other): 0 of 8
survivor count (dose: 1024.0 mg/kg/injection, schedule: Q01DX001 (oral), vehicle: acid diluted with saline): 0 of 8
survivor count (dose: 1024.0 mg/kg/injection, schedule: Q01DX001 (oral), vehicle: other): 0 of 8
survivor count (dose: 1024.0 mg/kg/injection, schedule: Q08DX002 (oral), vehicle: acid diluted with saline): 0 of 8
survivor count (dose: 1024.0 mg/kg/injection, schedule: Q08DX002 (oral), vehicle: other): 0 of 8

Source: PubChem BioAssay AID188 (DTP/NCI, 2004)
